This is an account of results in paper PMC11364392.

Chains of the proteins cited; added tags and fusions are not shown. Residues count along the entry.
UniProt P05106, residues 27-788: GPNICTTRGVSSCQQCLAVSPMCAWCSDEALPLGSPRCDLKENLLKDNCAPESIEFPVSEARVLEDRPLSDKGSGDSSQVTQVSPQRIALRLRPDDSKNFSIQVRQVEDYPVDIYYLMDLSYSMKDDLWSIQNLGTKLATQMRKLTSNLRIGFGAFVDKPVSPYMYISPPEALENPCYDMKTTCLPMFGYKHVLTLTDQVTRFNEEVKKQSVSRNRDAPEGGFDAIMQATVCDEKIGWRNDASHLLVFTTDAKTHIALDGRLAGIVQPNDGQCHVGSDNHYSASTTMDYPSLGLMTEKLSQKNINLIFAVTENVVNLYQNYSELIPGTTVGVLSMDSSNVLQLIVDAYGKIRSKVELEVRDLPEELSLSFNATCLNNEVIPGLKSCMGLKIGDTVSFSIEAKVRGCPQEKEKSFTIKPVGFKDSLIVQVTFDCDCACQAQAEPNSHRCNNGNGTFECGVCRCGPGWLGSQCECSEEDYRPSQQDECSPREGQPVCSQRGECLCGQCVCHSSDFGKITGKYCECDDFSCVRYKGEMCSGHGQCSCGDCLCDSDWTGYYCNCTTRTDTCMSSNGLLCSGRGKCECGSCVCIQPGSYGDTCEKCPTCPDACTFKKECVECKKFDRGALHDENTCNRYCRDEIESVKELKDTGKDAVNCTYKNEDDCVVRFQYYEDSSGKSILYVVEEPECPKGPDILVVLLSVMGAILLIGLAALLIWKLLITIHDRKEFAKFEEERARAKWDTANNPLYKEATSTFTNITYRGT
UniProt Q9Y490: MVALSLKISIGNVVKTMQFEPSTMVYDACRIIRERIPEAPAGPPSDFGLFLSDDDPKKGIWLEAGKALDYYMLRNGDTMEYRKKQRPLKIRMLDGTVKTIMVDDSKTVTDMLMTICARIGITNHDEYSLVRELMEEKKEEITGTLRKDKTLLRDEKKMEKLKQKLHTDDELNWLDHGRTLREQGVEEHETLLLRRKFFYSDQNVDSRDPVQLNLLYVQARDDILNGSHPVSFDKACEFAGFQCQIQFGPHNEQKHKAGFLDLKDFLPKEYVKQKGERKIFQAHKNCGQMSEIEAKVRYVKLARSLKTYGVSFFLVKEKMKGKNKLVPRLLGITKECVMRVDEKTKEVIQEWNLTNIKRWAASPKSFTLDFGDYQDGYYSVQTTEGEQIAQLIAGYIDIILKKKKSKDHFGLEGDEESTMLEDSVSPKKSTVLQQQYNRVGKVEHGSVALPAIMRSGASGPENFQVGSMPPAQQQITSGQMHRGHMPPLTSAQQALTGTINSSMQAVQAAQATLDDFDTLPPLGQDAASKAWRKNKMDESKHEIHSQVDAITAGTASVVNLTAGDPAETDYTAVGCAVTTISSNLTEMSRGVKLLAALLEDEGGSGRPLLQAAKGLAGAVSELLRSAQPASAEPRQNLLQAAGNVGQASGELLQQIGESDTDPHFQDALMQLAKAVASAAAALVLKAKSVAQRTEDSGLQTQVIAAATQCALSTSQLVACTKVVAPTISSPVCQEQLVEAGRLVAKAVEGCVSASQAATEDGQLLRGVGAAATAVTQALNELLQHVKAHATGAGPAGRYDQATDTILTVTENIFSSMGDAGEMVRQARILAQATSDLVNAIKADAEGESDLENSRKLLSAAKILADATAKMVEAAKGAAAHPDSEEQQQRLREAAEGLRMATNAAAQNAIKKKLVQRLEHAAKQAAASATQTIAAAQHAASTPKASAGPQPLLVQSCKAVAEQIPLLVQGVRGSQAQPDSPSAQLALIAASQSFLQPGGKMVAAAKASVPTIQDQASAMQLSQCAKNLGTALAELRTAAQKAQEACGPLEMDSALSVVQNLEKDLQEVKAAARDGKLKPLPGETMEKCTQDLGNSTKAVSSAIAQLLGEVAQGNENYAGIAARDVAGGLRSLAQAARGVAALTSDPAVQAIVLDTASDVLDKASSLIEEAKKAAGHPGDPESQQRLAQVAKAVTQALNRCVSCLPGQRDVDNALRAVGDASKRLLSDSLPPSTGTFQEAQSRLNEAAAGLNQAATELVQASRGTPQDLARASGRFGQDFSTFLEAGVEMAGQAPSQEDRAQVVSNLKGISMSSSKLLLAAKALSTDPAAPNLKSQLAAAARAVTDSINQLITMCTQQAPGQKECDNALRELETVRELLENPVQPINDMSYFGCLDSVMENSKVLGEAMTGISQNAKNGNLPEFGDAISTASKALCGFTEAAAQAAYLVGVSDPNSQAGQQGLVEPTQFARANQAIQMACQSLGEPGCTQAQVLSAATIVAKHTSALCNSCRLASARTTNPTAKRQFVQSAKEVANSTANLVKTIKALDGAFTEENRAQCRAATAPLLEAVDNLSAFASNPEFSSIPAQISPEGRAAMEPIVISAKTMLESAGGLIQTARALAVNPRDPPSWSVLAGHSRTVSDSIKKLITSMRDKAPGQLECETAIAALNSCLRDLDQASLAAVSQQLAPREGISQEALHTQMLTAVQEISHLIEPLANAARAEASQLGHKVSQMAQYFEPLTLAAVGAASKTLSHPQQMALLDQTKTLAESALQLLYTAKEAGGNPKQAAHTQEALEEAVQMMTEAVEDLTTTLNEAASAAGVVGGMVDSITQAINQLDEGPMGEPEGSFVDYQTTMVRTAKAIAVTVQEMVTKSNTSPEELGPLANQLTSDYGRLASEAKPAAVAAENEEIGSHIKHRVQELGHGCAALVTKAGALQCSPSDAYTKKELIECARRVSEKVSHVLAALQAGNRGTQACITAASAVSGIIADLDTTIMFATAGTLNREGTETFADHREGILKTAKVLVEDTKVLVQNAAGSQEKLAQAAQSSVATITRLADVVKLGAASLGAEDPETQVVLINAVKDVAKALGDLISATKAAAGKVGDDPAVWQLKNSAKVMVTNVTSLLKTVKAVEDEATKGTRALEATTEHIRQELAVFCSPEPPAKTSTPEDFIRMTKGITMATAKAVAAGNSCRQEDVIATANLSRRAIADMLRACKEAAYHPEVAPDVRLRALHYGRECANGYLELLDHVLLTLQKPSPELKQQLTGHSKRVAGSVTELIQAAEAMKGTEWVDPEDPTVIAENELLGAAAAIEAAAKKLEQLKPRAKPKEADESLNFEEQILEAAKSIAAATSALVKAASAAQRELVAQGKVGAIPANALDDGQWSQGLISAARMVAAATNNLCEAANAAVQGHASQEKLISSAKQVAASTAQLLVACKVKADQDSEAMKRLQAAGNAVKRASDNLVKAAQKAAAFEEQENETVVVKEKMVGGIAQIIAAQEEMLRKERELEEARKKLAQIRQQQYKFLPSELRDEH

The assay concerns the target integrin β3 (human (endogenous in HEL)) (UniProt P05106). Nature of the assay: proximity ligation; Duolink in situ PLA in unstimulated HEL cells (nontransfected or expressing RAP1B-WT, -G12E, -G12V, -G60R) plated on fibrinogen-coated coverslips (10 ug/mL, 30 min, 37°C), fixed and permeabilised; mouse monoclonal against integrin αIIbβ3 (clone P2) and rabbit polyclonal against talin-1; a dot when the probes are <40 nm apart.

These are yes or no findings as the source states them, for the method shown. In cells and extracts the contact can be indirect. Some binding calls cover weakened binding; strength is not graded here.

On to talin-1 (from UniProt Q9Y490 1-2541), for which the binding entry is listed as “binds”.
